This note sets out measurements from doi:10.1101/2025.08.25.672096 (bioRxiv, 2025).

By UniProt entry, the sequences of proteins in these tests, tags left out. Where a name states a change or a piece, a line headed by the entry shows the natural chain unless it says otherwise.
UniProt O14578: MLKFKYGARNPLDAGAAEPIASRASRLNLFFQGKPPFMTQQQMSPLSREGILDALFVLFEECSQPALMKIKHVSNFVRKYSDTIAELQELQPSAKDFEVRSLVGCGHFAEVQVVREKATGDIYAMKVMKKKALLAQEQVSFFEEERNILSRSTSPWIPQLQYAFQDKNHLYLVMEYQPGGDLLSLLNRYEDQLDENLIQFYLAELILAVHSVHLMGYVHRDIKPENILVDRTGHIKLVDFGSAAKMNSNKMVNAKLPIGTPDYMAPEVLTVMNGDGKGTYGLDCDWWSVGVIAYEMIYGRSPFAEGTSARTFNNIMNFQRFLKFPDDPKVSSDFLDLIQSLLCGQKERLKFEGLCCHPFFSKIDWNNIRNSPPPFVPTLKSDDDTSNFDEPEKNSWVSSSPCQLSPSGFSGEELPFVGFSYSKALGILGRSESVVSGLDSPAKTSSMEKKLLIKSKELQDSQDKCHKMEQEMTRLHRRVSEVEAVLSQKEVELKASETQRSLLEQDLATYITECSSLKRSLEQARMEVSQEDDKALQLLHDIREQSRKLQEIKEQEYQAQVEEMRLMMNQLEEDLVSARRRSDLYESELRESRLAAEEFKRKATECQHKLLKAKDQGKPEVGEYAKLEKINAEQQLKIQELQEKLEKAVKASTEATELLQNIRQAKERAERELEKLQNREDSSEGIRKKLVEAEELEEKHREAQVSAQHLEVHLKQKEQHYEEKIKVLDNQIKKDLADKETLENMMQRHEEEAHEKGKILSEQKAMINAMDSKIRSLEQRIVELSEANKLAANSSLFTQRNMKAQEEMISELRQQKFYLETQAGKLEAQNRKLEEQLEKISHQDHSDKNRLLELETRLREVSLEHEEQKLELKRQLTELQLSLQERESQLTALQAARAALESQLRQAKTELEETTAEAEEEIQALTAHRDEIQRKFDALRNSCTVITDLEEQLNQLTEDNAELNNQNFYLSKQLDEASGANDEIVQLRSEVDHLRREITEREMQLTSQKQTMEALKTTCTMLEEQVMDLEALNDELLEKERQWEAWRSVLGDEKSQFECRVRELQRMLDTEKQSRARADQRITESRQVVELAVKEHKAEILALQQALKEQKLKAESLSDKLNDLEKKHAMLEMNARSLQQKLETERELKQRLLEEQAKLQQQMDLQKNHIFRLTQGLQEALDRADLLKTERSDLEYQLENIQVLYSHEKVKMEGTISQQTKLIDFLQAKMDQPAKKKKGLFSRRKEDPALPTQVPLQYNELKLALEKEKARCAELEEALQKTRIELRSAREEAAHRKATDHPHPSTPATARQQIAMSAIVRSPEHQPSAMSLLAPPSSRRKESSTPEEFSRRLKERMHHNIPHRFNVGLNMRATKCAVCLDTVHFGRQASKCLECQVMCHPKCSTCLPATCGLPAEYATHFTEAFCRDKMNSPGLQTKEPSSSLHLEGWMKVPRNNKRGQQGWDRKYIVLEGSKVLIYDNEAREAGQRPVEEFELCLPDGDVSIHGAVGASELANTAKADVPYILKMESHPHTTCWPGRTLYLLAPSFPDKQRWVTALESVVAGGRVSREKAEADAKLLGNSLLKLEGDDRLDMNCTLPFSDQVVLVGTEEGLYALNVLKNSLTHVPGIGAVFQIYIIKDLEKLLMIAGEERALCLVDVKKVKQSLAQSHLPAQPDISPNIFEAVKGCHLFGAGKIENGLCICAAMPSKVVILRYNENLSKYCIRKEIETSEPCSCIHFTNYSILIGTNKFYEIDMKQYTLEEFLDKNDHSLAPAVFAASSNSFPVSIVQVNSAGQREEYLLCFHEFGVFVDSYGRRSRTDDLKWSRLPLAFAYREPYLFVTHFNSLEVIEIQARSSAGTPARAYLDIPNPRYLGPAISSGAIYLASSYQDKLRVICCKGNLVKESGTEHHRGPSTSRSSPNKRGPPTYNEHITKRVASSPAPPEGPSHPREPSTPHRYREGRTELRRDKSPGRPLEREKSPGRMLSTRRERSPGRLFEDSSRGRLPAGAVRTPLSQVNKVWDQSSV
UniProt Q96GD4: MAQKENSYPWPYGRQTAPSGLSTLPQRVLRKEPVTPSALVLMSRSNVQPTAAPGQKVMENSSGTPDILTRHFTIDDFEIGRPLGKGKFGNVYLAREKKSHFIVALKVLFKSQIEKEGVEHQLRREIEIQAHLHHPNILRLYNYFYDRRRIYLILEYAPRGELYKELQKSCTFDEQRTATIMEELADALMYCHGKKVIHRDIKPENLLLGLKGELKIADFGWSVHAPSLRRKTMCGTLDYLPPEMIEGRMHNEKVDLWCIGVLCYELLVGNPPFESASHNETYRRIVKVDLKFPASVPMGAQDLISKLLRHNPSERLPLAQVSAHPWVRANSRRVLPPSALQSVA
UniProt Q15058: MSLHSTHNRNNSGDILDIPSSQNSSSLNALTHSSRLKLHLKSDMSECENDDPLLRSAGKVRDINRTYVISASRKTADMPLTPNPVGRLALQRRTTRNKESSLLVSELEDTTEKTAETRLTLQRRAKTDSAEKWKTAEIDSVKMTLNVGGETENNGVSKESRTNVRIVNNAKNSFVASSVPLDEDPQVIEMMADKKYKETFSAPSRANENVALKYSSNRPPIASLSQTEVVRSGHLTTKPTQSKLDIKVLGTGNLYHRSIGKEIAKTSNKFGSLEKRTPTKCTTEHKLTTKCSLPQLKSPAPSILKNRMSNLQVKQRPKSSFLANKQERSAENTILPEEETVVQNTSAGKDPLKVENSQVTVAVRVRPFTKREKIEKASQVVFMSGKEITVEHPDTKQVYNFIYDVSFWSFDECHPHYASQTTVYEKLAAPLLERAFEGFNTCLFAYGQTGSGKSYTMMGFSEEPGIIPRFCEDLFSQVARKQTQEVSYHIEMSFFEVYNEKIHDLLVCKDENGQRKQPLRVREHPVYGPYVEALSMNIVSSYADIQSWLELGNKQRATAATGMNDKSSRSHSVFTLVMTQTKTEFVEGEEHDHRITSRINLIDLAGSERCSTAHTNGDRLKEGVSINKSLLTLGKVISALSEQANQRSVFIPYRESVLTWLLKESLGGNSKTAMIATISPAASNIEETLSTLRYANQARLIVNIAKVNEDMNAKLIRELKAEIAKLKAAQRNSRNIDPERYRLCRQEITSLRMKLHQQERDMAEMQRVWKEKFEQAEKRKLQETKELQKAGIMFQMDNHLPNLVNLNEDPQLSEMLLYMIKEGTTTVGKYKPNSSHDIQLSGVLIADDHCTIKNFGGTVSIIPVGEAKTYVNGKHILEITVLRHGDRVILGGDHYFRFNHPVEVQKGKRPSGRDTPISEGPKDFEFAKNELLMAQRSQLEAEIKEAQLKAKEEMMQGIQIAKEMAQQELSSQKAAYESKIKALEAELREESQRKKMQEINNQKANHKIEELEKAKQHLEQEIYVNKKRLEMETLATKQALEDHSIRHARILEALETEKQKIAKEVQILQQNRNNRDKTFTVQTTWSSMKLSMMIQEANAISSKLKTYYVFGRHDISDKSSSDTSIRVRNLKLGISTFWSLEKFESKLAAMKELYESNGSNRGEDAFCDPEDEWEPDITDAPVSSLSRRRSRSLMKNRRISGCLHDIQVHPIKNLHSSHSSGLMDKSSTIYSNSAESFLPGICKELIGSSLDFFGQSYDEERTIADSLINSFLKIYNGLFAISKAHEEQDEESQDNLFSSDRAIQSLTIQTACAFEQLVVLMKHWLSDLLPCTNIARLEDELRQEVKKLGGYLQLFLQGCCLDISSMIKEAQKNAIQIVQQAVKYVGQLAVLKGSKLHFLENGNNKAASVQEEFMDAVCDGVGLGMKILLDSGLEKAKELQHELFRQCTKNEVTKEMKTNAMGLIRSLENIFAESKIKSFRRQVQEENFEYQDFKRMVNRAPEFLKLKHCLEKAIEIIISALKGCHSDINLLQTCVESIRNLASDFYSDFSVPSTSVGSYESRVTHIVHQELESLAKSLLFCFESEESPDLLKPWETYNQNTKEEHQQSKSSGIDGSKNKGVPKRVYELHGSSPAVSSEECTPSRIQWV

No constants are given. Whether binding was seen depends on the method and setting. In cells and extracts the contact can be indirect. A result given as binding can be weak or reduced; the word gives no strength.

The chains are these.
B1: MKLP1/KIF23 (protein, UniProt Q02241 1-960)
chain: MKSARAKTPRKPTVKKGSQTNLKDPVGVYCRVRPLGFPDQECCIEVINNTTVQLHTPEGYRLNRNGDYKETQYSFKQVFGTHTTQKELFDVVANPLVNDLIHGKNGLLFTYGVTGSGKTHTMTGSPGEGGLLPRCLDMIFNSIGSFQAKRYVFKSNDRNSMDIQCEVDALLERQKREAMPNPKTSSSKRQVDPEFADMITVQEFCKAEEVDEDSVYGVFVSYIEIYNNYIYDLLEEVPFDPIKPKPPQSKLLREDKNHNMYVAGCTEVEVKSTEEAFEVFWRGQKKRRIANTHLNRESSRSHSVFNIKLVQAPLDADGDNVLQEKEQITISQLSLVDLAGSERTNRTRAEGNRLREAGNINQSLMTLRTCMDVLRENQMYGTNKMVPYRDSKLTHLFKNYFDGEGKVRMIVCVNPKAEDYEENLQVMRFAEVTQEVEVARPVDKAICGLTPGRRYRNQPRGPVGNEPLVTDVVLQSFPPLPSCEILDINDEQTLPRLIEALEKRHNLRQMMIDEFNKQSNAFKALLQEFDNAVLSKENHMQGKLNEKEKMISGQKLEIERLEKKNKTLEYKIEILEKTTTIYEEDKRNLQQELETQNQKLQRQFSDKRRLEARLQGMVTETTMKWEKECERRVAAKQLEMQNKLWVKDEKLKQLKAIVTEPKTEKPERPSRERDREKVTQRSVSPSPVPLSSNYIAQISNGQQLMSQPQLHRRSNSCSSISVASCISEWEQKIPTYNTPLKVTSIARRRQQEPGQSKTCIVSDRRRGMYWTEGREVVPTFRNEIEIEEDHCGRLLFQPDQNAPPIRLRHRRSRSAGDRWVDHKPASNMQTETVMQPHVPHAITVSVANEKALAKCEKYMLTHQELASDGEIETKLIKGDIYKTRGGGQSVQFTDIETLKQESPNGSRKRRSSTVAPAQPDGAESEWTDVETRCSVAVEMRAGSQLGPGYQHHAQPKRKKP

The target of this experiment is GFP-tagged Citron kinase (CIT-K) S699D, phospho-mimetic mutant (human) (UniProt O14578). As to the kind of experiment: co-IP.
In the case of “Aurora B kinase (AURKB) (from UniProt Q96GD4 1-344)”, the binding entry is recorded as “binds”. Take KIF14 (from UniProt Q15058 1-1648): the binding result is on record as “binds”. For B1 the value was “binds”.
